Measurements reported in PubChem BioAssay AID1259308 (NCATS, 2017)
Screen: 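Knock-downs that increase output of a recombinant reporter protein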 (primary screen). Cells: human HEK293 embryonic kidney cells stably expressing firefly luciferase (HEK-CMV-Luc2-Hygro). Reagent: single siRNA against human genes, 0.8 pmol siRNA per well. Time to read-out: 72 h. Measured: 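Luciferase light (ONE-Glo) measured on one replicate plate set and viability (CellTiter-Glo) on the other, scaled to a negative control siRNA, with robust z-scores and luciferase per cell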. Reading the numbers: total luciferase, z-score and total luciferase, % of control: higher = more reporter protein produced; luciferase per cell, z-score: higher = more reporter output per viable cell; viable cells, % of control: higher = more viable cells. Hit rule: 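An siRNA counts as active if its total luciferase robust z-score exceeds 3; genes with two or more such siRNAs out of three were retested with fresh siRNAs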. Calls: active = raised luciferase; inactive = no rise.
The deposit covers about 59,000 reagents; this is a random part of them. About 1,510 of them (2.6%) count as active. 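Calls use total luciferase alone and ignore viability, so some active siRNAs may act by altering cell number.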 A number with no mark means an inactive call. The numbers tell different reagents against one gene apart. Reagent sequences are not shown.

Gene	reagent no.	total luciferase, z-score	total luciferase, % of control	luciferase per cell, z-score	viable cells, % of control
TRMT61B (tRNA methyltransferase 61B)	1	-1.08	60.5	-1.12	90.8
TRMT61B (tRNA methyltransferase 61B)	2	-0.792	66.1	-0.47	83.6
TRMT61B (tRNA methyltransferase 61B)	3	-0.084	80.2	-0.872	113
SIRAL1 (SIR2 antiphage like 1)	1	1.11	104	1.57	76.9
SIRAL1 (SIR2 antiphage like 1)	2	1.21	106	1.93	71.1
SIRAL1 (SIR2 antiphage like 1)	3	-0.713	67.7	-1.21	104
PCDH17 (protocadherin 17)	1	0.803	97.9	1.3	77.6
PCDH17 (protocadherin 17)	2	-0.0571	80.8	0.119	87.5
PCDH17 (protocadherin 17)	3	-0.688	68.2	0.0237	75.7
CTXN3 (cortexin 3)	1	0.76	97	0.81	87.6
CTXN3 (cortexin 3)	2	-0.266	76.6	0.593	73.2
CTXN3 (cortexin 3)	3	-0.619	69.6	-0.205	82
REPIN1 (replication initiator 1)	1	0.396	89.8	0.866	79.8
REPIN1 (replication initiator 1)	2	-0.485	72.2	0.162	77.3
REPIN1 (replication initiator 1)	3	0.66	95	0.996	81.7
FAM3B (FAM3 metabolism regulating signaling molecule B)	1	-1.01	61.8	-0.753	84.2
FAM3B (FAM3 metabolism regulating signaling molecule B)	2	-0.208	77.7	-0.594	102
FAM3B (FAM3 metabolism regulating signaling molecule B)	3	-1.67	48.7	-0.934	69.6
UBE2O (ubiquitin conjugating enzyme E2 O)	1	0.0793	83.5	-0.703	112
UBE2O (ubiquitin conjugating enzyme E2 O)	2	1.53	112	0.809	102
UBE2O (ubiquitin conjugating enzyme E2 O)	3	1.27	107	1.82	74.2
ALMS1P1 (ALMS1 pseudogene 1)	1	-1.33	55.5	-1.47	91.4
ALMS1P1 (ALMS1 pseudogene 1)	2	1.18	105	1.31	83.6
ALMS1P1 (ALMS1 pseudogene 1)	3	-0.68	68.4	-0.466	86.4
ANKRD13C-DT (ANKRD13C divergent transcript)	1	0.558	93	0.917	81.6
ANKRD13C-DT (ANKRD13C divergent transcript)	2	0.00553	82	-0.249	97.8
ANKRD13C-DT (ANKRD13C divergent transcript)	3	-0.0489	80.9	-0.643	107
BAGE (B melanoma antigen)	1	0.916	100	1.15	82.7
BAGE (B melanoma antigen)	2	-1.79	46.3	-1.96	86.6
BAGE (B melanoma antigen)	3	1.33	108	2.15	68.8
SMARCA5 (SNF2 related chromatin remodeling ATPase 5)	1	0.604	93.9	0.345	95.8
SMARCA5 (SNF2 related chromatin remodeling ATPase 5)	2	0.574	93.3	-0.0988	107
SMARCA5 (SNF2 related chromatin remodeling ATPase 5)	3	-0.0425	81	-0.119	93.4
ABHD13 (abhydrolase domain containing 13)	1	-1.62	49.7	-1.74	87.8
ABHD13 (abhydrolase domain containing 13)	2	-0.337	75.2	-0.392	93.1
ABHD13 (abhydrolase domain containing 13)	3	-1.04	61.2	-1.38	98.4
NCR3 (natural cytotoxicity triggering receptor 3)	1	0.825	98.3	0.505	96.2
NCR3 (natural cytotoxicity triggering receptor 3)	2	2.79	137	2.37	82.3
NCR3 (natural cytotoxicity triggering receptor 3)	3	2.1	124	2.43	72.8

Single entries from above:
REPIN1 (replication initiator 1) #3, luciferase per cell, z-score = 0.996
Entry for FAM3B (FAM3 metabolism regulating signaling molecule B) #1 under “total luciferase, % of control”: 61.8
For “luciferase per cell, z-score”, NCR3 (natural cytotoxicity triggering receptor 3) #1 reads 0.505
Value of SIRAL1 (SIR2 antiphage like 1) #1 under “viable cells, % of control”: 76.9
